According to article PMC2175515, “Hfq stimulates the activity of the CCA-adding enzyme”:
Results are given in words; binding and its absence hold for the method and conditions named.

The chains behind the UniProt entries cited, without tags or fusion partners.
UniProt P0A6X3: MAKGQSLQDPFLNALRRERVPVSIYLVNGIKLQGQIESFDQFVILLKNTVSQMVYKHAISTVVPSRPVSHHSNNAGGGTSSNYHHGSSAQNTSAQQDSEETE

Biological target: Hfq (Escherichia coli, UniProt P0A6X3 1-102)
Assay: native gel or EMSA; 5'-32P-labelled tRNA without CCA end incubated with Hfq and CCA-adding enzyme for 1 and 10 min; 30 mM HEPES/KOH pH 7.6, 30 mM KCl, 6 mM MgCl2, 2 mM DTT, 30°C; native 6% polyacrylamide gel, autoradiography (only the labelled tRNA is seen); both purified

B1: E. coli CCA-adding enzyme (enzyme, UniProt P06961 1-412)
chain: MKIYLVGGAVRDALLGLPVKDRDWVVVGSTPQEMLDAGYQQVGRDFPVFLHPQTHEEYALARTERKSGSGYTGFTCYAAPDVTLEDDLKRRDLTINALAQDDNGEIIDPYNGLGDLQNRLLRHVSPAFGEDPLRVLRVARFAARYAHLGFRIADETLALMREMTHAGELEHLTPERVWKETESALTTRNPQVFFQVLRDCGALRVLFPEIDALFGVPAPAKWHPEIDTGIHTLMTLSMAAMLSPQVDVRFATLCHDLGKGLTPPELWPRHHGHGPAGVKLVEQLCQRLRVPNEIRDLARLVAEFHDLIHTFPMLNPKTIVKLFDSIDAWRKPQRVEQLALTSEADVRGRTGFESADYPQGRWLREAWEVAQSVPTKAVVEAGFKGVEIREELTRRRIAAVASWKEQRCPKPE
  binding: no binding (tested: 7.5 pmol Hfq and 5 pmol tRNA)
